The chains behind the UniProt entries cited, without tags or fusion partners.
UniProt Q92786: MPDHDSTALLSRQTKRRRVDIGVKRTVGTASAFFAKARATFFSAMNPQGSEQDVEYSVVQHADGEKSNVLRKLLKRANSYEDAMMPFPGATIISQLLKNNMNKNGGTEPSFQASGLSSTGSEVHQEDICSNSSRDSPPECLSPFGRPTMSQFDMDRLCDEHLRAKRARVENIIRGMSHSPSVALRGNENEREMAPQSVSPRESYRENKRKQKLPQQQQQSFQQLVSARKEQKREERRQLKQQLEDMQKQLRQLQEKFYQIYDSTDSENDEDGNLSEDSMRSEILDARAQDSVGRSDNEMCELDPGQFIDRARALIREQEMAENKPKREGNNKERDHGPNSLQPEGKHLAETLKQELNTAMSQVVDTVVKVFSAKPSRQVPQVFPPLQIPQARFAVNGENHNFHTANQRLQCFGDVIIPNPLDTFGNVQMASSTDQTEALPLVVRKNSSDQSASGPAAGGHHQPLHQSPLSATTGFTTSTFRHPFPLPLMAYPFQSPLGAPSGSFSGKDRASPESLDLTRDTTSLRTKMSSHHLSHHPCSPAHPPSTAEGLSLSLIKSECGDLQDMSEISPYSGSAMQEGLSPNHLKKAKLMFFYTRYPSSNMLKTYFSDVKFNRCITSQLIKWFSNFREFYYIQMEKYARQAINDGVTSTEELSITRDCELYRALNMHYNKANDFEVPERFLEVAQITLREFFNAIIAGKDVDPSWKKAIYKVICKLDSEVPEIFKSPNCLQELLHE
UniProt Q13619: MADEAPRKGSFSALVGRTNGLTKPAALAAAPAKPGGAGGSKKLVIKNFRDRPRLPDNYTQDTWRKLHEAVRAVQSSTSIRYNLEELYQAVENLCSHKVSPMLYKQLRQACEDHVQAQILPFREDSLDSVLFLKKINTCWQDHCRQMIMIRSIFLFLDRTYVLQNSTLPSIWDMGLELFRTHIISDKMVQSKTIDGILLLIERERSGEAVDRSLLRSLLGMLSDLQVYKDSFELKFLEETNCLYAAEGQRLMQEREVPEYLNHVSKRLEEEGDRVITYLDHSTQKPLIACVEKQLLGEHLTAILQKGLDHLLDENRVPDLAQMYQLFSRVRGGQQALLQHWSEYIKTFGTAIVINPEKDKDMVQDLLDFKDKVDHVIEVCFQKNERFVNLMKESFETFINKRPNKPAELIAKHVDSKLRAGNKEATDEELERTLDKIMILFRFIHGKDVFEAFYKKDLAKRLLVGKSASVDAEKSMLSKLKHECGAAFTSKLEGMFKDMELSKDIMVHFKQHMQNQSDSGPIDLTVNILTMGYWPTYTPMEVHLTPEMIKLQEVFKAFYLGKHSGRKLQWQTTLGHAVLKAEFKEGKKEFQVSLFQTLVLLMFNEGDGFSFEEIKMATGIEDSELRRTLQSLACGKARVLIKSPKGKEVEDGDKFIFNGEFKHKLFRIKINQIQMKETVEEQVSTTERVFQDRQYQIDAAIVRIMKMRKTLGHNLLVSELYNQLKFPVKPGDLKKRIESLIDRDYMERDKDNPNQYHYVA
UniProt Q13620: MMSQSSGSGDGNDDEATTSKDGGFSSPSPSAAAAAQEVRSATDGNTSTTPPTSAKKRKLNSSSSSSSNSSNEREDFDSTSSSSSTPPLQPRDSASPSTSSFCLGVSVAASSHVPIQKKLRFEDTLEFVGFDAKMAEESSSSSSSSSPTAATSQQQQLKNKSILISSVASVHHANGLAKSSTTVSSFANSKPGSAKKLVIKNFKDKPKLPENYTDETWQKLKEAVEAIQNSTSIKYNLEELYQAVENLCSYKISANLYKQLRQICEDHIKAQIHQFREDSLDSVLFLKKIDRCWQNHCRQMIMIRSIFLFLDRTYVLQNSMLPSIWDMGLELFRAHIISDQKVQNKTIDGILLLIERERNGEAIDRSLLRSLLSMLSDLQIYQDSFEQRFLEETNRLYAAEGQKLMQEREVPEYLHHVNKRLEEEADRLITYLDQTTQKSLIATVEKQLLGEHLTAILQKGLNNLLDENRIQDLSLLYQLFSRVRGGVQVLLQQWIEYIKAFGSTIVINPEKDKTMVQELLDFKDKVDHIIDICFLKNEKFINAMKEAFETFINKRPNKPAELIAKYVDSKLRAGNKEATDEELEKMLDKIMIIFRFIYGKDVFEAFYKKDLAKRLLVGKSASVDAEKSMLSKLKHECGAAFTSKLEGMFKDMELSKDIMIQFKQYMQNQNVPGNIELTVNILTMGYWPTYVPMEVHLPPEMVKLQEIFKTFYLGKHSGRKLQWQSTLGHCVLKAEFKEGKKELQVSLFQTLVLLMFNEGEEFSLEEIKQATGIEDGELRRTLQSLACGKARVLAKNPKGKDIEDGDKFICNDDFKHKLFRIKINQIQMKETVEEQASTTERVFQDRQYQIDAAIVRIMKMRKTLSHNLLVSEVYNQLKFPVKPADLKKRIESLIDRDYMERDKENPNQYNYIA
UniProt Q16531: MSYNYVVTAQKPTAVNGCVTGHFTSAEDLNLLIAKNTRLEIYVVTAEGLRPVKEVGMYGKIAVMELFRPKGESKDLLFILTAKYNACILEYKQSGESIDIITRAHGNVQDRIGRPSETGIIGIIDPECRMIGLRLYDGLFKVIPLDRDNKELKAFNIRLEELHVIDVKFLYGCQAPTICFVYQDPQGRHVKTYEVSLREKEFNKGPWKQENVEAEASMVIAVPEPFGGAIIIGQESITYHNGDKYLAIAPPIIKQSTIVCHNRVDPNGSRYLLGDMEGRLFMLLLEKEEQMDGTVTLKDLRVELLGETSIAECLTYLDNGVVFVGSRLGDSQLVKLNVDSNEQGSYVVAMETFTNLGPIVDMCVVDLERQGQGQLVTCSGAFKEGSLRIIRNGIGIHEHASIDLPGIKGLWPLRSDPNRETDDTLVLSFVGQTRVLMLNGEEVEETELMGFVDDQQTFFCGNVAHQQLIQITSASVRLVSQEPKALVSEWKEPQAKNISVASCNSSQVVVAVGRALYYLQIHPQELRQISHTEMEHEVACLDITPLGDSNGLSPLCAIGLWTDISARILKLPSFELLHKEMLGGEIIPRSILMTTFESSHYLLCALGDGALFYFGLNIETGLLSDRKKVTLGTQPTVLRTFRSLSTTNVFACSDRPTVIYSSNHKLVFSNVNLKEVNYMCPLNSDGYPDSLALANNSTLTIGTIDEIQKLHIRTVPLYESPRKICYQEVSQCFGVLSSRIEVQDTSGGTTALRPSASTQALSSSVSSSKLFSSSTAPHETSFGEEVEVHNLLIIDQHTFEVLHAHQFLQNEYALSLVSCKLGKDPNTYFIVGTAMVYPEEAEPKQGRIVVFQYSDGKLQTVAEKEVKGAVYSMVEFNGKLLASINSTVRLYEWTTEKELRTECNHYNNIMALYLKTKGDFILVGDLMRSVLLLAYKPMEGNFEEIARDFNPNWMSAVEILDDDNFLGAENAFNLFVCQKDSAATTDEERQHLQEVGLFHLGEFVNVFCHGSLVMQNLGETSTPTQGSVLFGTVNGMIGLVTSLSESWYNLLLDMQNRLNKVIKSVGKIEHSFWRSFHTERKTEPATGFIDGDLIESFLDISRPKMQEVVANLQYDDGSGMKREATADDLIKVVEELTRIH

According to PMC9700865:

Biological target: FLAG-PROX1, wild type, expressed in HEK293T (UniProt Q92786)
Experiment: affinity purification with mass spectrometry; HEK293T cells transfected with FLAG-PROX1 or control plasmid, RIPA lysate, anti-FLAG M2-agarose beads, washed six times, SDS-PAGE, mass spectrometry; glucose starvation in the presence of MG132

Row | binding | Substance
1 | binds | CUL4A found by mass spectrometry with FLAG-PROX1 (from UniProt Q13619 1-759)
2 | binds | CUL4B found by mass spectrometry with FLAG-PROX1 (from UniProt Q13620 1-913)
3 | binds | DDB1 found by mass spectrometry with FLAG-PROX1 (from UniProt Q16531 1-1140)

Results are given in words; binding and its absence hold for the method and conditions named. In cells and extracts the contact can be indirect. Here binding means that the protein was enriched with, or labelled near, the bait; the list need not be complete.
